# No constants are given. Whether binding was seen depends on the method and setting. In cells and extracts the contact can be indirect. Some entries that bind do so weakly or less than the wild type.
# Sequences of proteins named here, by UniProt entry; tags and fusion partners are left off.
# UniProt P10415: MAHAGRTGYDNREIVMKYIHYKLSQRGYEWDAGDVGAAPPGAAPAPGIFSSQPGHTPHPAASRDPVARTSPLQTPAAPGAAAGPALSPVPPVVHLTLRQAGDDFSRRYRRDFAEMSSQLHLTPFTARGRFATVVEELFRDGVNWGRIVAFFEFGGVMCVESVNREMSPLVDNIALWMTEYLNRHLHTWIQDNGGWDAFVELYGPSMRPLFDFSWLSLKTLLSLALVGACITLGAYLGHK
# UniProt O60260: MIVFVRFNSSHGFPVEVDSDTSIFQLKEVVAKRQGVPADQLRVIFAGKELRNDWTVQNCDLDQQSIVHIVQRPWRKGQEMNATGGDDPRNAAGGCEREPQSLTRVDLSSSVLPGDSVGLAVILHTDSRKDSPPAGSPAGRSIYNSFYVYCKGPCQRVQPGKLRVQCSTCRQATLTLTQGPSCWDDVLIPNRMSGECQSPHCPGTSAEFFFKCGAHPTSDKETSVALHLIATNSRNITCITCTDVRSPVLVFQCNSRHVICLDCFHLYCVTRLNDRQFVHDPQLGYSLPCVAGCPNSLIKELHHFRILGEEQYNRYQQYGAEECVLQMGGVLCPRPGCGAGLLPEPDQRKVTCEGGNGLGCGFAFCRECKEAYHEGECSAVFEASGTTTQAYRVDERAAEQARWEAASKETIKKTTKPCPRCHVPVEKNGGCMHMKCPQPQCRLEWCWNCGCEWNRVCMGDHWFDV
# Target: Bcl-2 (human (endogenous in A549)) (UniProt P10415)
# Assay: co-IP; immunoprecipitation from A549 cells exposed to LPS; precipitating antibody and conditions not stated
substance,measurement,value
Parkin (from UniProt O60260 1-465),binding,binds

# Reference: PMC7054785
